These are yes or no findings as the source states them, for the method shown. In cells and extracts the contact can be indirect. For some assays here: Binding calls can cover weak binding; strength is not graded here.
Assays:
[1] = target: PsG alpha 1 (Pisum sativum heterotrimeric G-protein alpha 1 subunit) (Pisum sativum) (UniProt Q8H6G2); experiment: co-IP; in vitro: soluble fractions of E. coli C41 lysates with 6xHIS- or 3xFLAG-tagged proteins mixed in pairs with uMACS MicroBeads (anti-HIS or anti-FLAG), 4 °C, 1.5 h; uMACS column, washed with lysis buffer; eluate analysed by Western blot
[2] = target: PsG alpha 2 (Pisum sativum heterotrimeric G-protein alpha 2 subunit) (Pisum sativum) (UniProt Q8LJQ9); experiment: as above

By UniProt entry, the sequences of proteins in these tests, tags left out. Where a name states a change or a piece, a line headed by the entry shows the natural chain unless it says otherwise.
UniProt Q8H6G2: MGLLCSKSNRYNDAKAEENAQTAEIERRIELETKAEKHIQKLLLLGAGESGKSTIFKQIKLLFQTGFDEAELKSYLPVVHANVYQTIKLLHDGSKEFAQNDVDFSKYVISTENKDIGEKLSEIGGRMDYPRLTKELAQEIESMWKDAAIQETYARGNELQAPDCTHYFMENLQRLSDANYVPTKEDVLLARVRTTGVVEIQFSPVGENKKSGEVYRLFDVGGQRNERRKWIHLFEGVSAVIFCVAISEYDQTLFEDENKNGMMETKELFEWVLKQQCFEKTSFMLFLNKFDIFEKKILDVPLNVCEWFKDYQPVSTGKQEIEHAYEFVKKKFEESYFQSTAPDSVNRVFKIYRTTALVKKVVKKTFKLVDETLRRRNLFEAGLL
UniProt Q8LJQ9: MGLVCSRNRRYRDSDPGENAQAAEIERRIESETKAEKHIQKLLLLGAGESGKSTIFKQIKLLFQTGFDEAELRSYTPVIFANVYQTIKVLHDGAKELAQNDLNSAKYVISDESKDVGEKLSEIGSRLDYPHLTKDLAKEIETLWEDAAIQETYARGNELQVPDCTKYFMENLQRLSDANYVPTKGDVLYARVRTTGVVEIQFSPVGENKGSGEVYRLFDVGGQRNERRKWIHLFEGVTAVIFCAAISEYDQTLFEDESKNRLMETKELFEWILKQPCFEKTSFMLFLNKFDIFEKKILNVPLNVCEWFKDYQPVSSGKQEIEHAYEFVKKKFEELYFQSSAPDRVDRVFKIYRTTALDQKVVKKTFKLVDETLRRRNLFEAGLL
UniProt A0A9D4WTS0: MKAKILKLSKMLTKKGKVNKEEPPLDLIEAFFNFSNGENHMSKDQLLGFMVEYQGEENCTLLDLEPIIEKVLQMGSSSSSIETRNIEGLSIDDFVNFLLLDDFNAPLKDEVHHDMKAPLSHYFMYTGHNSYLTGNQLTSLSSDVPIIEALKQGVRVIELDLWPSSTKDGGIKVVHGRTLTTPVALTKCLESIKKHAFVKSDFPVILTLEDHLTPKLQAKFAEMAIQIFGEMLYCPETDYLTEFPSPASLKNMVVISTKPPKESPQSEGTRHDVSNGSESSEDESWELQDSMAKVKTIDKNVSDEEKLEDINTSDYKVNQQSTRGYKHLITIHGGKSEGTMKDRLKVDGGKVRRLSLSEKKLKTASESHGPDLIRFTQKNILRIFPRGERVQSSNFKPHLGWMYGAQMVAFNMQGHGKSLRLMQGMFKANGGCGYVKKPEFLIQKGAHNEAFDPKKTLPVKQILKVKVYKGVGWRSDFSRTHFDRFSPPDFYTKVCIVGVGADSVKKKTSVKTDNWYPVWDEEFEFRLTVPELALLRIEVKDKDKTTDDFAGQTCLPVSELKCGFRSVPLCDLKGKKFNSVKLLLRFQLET

For “PsPLC (Pisum sativum phospholipase C, PsPLC1) (from UniProt A0A9D4WTS0) (enzyme)”, the binding [1] was “no binding” and the binding [2] was “binds”.

— publication PMC8790031
